# Data taken from PubChem BioAssay AID2417 (National Center for Advancing Translational Sciences (NCATS), 2010).
# In all, about 140,000 compounds went through this assay and about 4,300 (3.1%) were called active. Inconclusive results, whose numbers are uncertain, are shown with a selection of clear calls.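 Rule for the calls: active = readout at or below -70, meaning at least 70% loss of cells showing the perinucleolar compartment, a nuclear body marking cancer cells; inconclusive = readout between -30 and a set limit; inactive = the rest.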
# Test: High Content Assay for Compounds that inhibit the Assembly of the Perinucleolar Compartment
# Settings: PC3M PTB-GFP, PNC prevalence imaging, 16 h; at 10 µM; stronger effect = lower value
# From the text: High Content Assay for Compounds that inhibit the Assembly of the Perinucleolar Compartment NIH Chemical Genomics Center [NCGC] NIH Molecular Libraries Probe Centers Network [MLPCN] MLPCN Grant: MH082371-01A2 Assay Submitter (PI): Sui Huang, Northwestern University, Feinberg School of Medicine, Cell and Molecular Biology, Chicago, Illinois. The perinucleolar compartment (PNC) is a non-membrane-bound nuclear subdomain that is associated with but structurally distinct from the nucleolus. The PNC is a heritable trait, in which the number of PNCs per cell in daughter cells often mimics that of their mother cells. The PNC is heterogeneous in shape, is stable through interphase, disassembles during mitosis, and reassembles in early G1. The PNC is concentrated with newly synthesized RNA polymerase III (pol III) RNAs (MRP RNA, RNAse P H1 RNA, hY RNAs[hY1, 2, 5], Alu RNA, and SRP [7SL] RNA) and RNA binding proteins (nucleolin, PTB, CUG-BP, KSRP, Raver1, Raver2, and Rod). […] Extensive in vitro studies have shown that the PNC is unique to tumor cells and preferentially forms in tumor cells derived from solid tissues. Examination of cancer cell lines from various origins and malignant capacities has shown that PNC prevalence correlates with the malignancy of tumors and has the potential to be developed as a pan-cancer prognostic marker. […] Although the PNC is associated with a DNA locus and a handful of components have been identified, much remains to be investigated regarding the structure and function of the PNC and its mechanistic link to cancer. We have previously shown that PNC prevalence reduction is a valid strategy to identify compounds that can be used to study the structure and function of the PNC. It is necessary, however, to create a screening platform that is able to test a large number of compounds in an automated fashion. Here we report the development and robustness of an automated whole-cell phenotypic image-based screening assay that is capable of identifying such compounds.
# PNC High Content Imaging Assay Procedure: 1. Cells at a density of 75-90% confluency in T175 flasks were harvested using 7 ml TrypLE Express cell dissociation reagent. After dissociation (5 minutes room temperature incubation) 10 ml of complete media was added to the TrypLE/cell suspension. The liquid was transferred to a 50 ml Conical tube and cells were pelleted at 1000 RPM for 5 min. Supernatant was removed and cells were resuspended to a final density of 150-200 cells/ul in complete media. 2. Cells were plated in 5 ul volume (750-1000 cells/well) into 1536 well Black uclear Aurora Low Base plates and allowed to recover and adhere at 37 C in a humidified 5% CO2 incubator for 4 hours. 3. After 4 hour incubation, compound libraries (23 nl of […] in columns 5-48) were transferred to the plates in duplicate using a 1536 well pintool. Camptothecin positive control (59 uM final) was added to column 2 and 1:3 dilutions of camptothecin was added to column 3. DMSO negative controls were present in columns 1 and 4. 4. After a 16 hour incubation in the 37 C incubator, cells were fixed by the addition of 4 ul of 6% EM grade paraformaldehyde (containing 0.1% triton X 100) directly to the cells. The plates were incubated at room temperature for 20 minutes. The liquid was removed using a 32 channel Kalypsys aspirator and the fixed cells were washed twice with 5 ul PBS followed by a final addition of 5 ul PBS containing 1 ug/ml Hoechst 33342. 5. Fixed plates were sealed and sotred at 4C until imaged. 6. Plates were imaged on an InCell 1000 automated microscope using a 20 x objective, a standard FITC filter set, no camera binning, and an exposure time of ~100-150 msec/well. 7. Data analysis. PNC prevalence was determined using the Multitarget analysis module from InCell Workstation software (V3.5 ) and analysis was run on a quad core workstation using the Incell Developer Toolbox (V1.7). […]
row,SMILES,"activity change (PNC), negative = inhibition"
1,CC(C)Sc1nc2c(c(=O)n1-c1ccc(F)cc1)SCC2,inconclusive: -56.1%
2,O=S(=O)(CC(CN1CCCC1)N1CCCC1)c1ccc2ccccc2c1 (stereo unspecified),active: -100%
3,CCCCC(=O)Nc1cccc(-c2cn3ccccc3n2)c1,inconclusive: -31.5%
4,O=C(Nc1cc(Cl)ccc1N1CCCCC1)c1cccs1,active: -88.3%
5,CC(C)C(=O)Nc1cccc(C(=O)Nc2nnc(C(C)C)s2)c1,inactive: 44.8%
6,CCS(=O)(=O)Nc1ccc(C2=NN(C(=O)c3ccco3)C(c3ccc(C)cc3)C2)cc1 (stereo unspecified),inactive: -23.4%
7,Clc1ccc2[nH]c3c(c2c1)CCc1cn[nH]c1-3,inactive: -3.05%
8,CSc1nc(-c2ccco2)nn1S(=O)(=O)c1ccc(C)cc1,inactive: 10.4%
9,O=C(O)CCN1C(=O)/C(=C/c2ccc(-c3nc4ccccc4s3)o2)SC1=S,inactive: -13.7%
10,CCOC(=O)c1[nH]c(C)c(C(=O)N2CCc3ccccc32)c1C,inconclusive: -39%
11,O=C(CSc1ccc2ccccc2c1)NC1CCCc2ccccc21 (stereo unspecified),inconclusive: -55.3%
12,Cc1cc(C)n(CC(=O)NC2CCCCC2)n1,inconclusive: -51.3%
13,c1csc(-c2nnsc2-c2nc3ccccc3[nH]2)c1,inconclusive: -43.5%
14,O=C(CN(Cc1ccc2c(c1)OCO2)C(=O)CNS(=O)(=O)c1ccccc1)NCc1ccco1,inactive: -27.5%
15,CC(C)CNC(=O)NC(=O)COc1ccc(C=O)cc1,inconclusive: -74%
16,Cc1cccc(Nc2nc(-c3c(C)nc4ccccn34)cs2)c1,inactive: 22.7%
17,Cc1ccccc1C(=O)Nc1ccccn1,inactive: 7%
18,CCn1c(O)c(C=NC2CCCC2)sc1=S,inconclusive: -71.9%
19,O=C(Cn1cc(SCc2ccc(F)cc2)c2ccccc21)N1CCOCC1,inconclusive: -42.1%
20,CCn1c(SCC(=O)Nc2ncc(C(F)(F)F)cc2Cl)nnc1-c1ccccc1,inconclusive: -33.9%
21,COc1ccc(NC(=O)CC(C)(C)C)c([N+](=O)[O-])c1,inactive: -19.7%
22,O=C(Nc1cccc(-c2cn3ccccc3n2)c1)c1cccs1,inconclusive: -44%
23,CN1CCN(c2ccccc2NC(=O)c2ccc(-c3ccc(Cl)cc3Cl)o2)CC1,inconclusive: -68%

# Taken from above:
# activity change (PNC), negative = inhibition with CC(C)C(=O)Nc1cccc(C(=O)Nc2nnc(C(C)C)s2)c1 is entered as inactive: 44.8%
# activity change (PNC), negative = inhibition with c1csc(-c2nnsc2-c2nc3ccccc3[nH]2)c1 is entered as inconclusive: -43.5%

# The results go on.

row,SMILES,"activity change (PNC), negative = inhibition"
1,Cc1cc(C)c2cc(CN(CCN3CCCC3)C(=O)Nc3ccc(F)cc3)c(=O)[nH]c2c1,inconclusive: -67.3%
2,Cc1[nH]c(=O)[nH]c(=O)c1/C=N/NC(=O)[C@H](CC(C)C)NC(=O)OC(C)(C)C,inactive: 24.2%
3,CCc1nc2oc3cc(OC)ccc3c(=O)c2c(=O)n1Cc1ccccc1,inactive: 22.4%
4,N/C(=N\OC(=O)Nc1ccccc1)c1ncc(C(F)(F)F)cc1Cl,inconclusive: -46.5%
5,O=C(NC(=S)Nc1ccc(N2CCCCC2)c(Cl)c1)c1ccc2c(c1)OCCO2,inconclusive: -39.6%
6,CCOc1ccc(NC(=O)CN2CCN(CC(=O)Nc3cccc(F)c3)CC2)cc1,inactive: 56.5%
7,Cc1ccc(C(c2nnnn2C(C)(C)C)N2CCc3ccccc3C2)cc1 (stereo unspecified),inconclusive: -37.7%
8,CC1=CC(=O)C(C(C)C)=C/C1=N/OC(=O)c1cccc([N+](=O)[O-])c1,inactive: 20.8%
9,CC(C)(C)OC(=O)N1CCC[C@H]1c1nnc(SCc2c(Cl)cccc2Cl)o1,inactive: -27.4%
10,O=C(CSc1nc2sc3c(c2c(=O)n1-c1ccccc1)CCCC3)NCc1ccco1,inactive: 53.3%
11,CCOc1ccccc1C1N(c2ccc(OC)cc2)C(=O)C2CCCN21 (stereo unspecified),inconclusive: -34.3%
12,O=C1CCCN1CC(O)CS(=O)(=O)c1ccc(Cl)cc1 (stereo unspecified),inactive: -5.36%
13,CC(C)CC(/C(O)=C(\C#N)c1nc2ccccc2[nH]1)N1C(=O)c2ccccc2C1=O (stereo unspecified),inconclusive: -30.4%
14,CS(=O)(=O)c1ccc(C(=O)NC2CCOC2=O)cc1 (stereo unspecified),inconclusive: -66.7%
15,CCOc1ccc(CCNC(=O)Cn2c(=O)oc3ccccc32)cc1OCC,inconclusive: -38.6%
16,COC(=O)Cn1c(=NC(=O)C2COc3ccccc3O2)sc2cc(S(N)(=O)=O)ccc21 (stereo unspecified),active: -134%
17,Cc1ccc(CNC(=O)CN2CCCC(C)C2)cc1 (stereo unspecified),inactive: 4.48%
18,Cc1ccc(C(=O)N2CCOCC2)cc1[N+](=O)[O-],inactive: -1.43%
19,CCOC(=O)c1[nH]c2c(c1C)C(=O)CC(c1ccc(F)cc1)C2 (stereo unspecified),active: -94.6%
20,CC(C)NC(=O)c1cc2ccccc2o1,inactive: 11.2%
21,Cc1nn(-c2ccccc2)c(Cl)c1/C=N\NC(=O)c1cncc(Br)c1,inconclusive: -56.9%
22,CC1(C)C2CC=C(/C=N/NC(=O)c3ccc(O)cc3)C1C2 (stereo unspecified),inconclusive: -39.1%
23,COC(=O)CSc1nnc(C)n1-c1ccc(C)cc1,inactive: -18.7%

row,SMILES,"activity change (PNC), negative = inhibition"
1,O=C1CCCC(O)=C1N=Nc1c(Cl)cc(Cl)cc1Cl,inconclusive: -34%
2,COC(=O)c1cc(CSc2nnc(-c3ccccc3)c(-c3ccccc3)n2)oc1C,inactive: 5.19%
3,CC1(C)CC(=O)c2c(oc3cc(O)c(O)cc23)C1,inactive: 47.3%
4,COc1ccc(NC(=O)Cn2nnc(C(N)=O)c2N)c(OC)c1,inconclusive: -64.8%
5,CC(C)CN(C(=O)COC(=O)c1cc2ccccc2oc1=O)C1CCS(=O)(=O)C1 (stereo unspecified),inconclusive: -31.5%
6,CN(c1ccccc1)c1ccc(/C=N/N2CCOCC2)cc1,inconclusive: -33.7%
7,Cc1ccc(C2C3=C(CCCC3=O)N=C3c4ccccc4C(=O)C32)cc1 (stereo unspecified),inactive: -19.1%
8,CC12CCC(c3c(CO)nn(-c4ccccc4)c31)C2(C)C (stereo unspecified),inconclusive: -42.1%
9,CC(=O)c1noc(C)c1C(=O)Nc1nccs1,active: -92.9%
10,CN(C)C(=O)CSc1nnc2sc3ccccc3n12,inactive: 2.15%
11,N#Cc1c(NC(=O)C2CC2)sc2c1CCCCC2,inactive: -21.9%
12,COc1ccc(S(=O)(=O)NC(CC(=O)NCc2ccccc2OC)c2ccco2)cc1 (stereo unspecified),inactive: 32.4%
13,CCOC(=O)C1=C(CNCCc2ccc(Cl)cc2)NC(=O)NC1c1ccc2c(c1)OCO2 (stereo unspecified),inconclusive: -45.4%
14,COC(=O)C1=NN(c2cccc(C)c2)C2C(=O)N(c3ccccc3OC)C(=O)C12 (stereo unspecified),inactive: -20%
15,O=C(CSc1nnnn1-c1cccc2c1CCCC2)N1CCCCC1,inconclusive: -45.3%
16,CS(=O)(=O)N(CC(=O)N1CCN(Cc2ccc3c(c2)OCO3)CC1)c1ccc2c(c1)OCO2,inactive: -4.43%
17,FC(F)(F)c1cc(-c2ccccc2)nc(NCc2cccs2)n1,inconclusive: -31.2%
18,CN(C)CC(=O)Nc1cc(C(F)(F)F)ccc1Cl,inconclusive: -34.2%
19,CC1CCCC2(C1)NC(=S)N(c1ccccc1)N2 (stereo unspecified),inconclusive: -44.1%
20,Cc1onc(C(=O)N2CCN(c3ccccc3F)CC2)c1-c1ccccc1Cl,inconclusive: -32.5%
21,Cc1noc(C)c1COC(=O)c1ccc2c(c1)S(=O)(=O)c1ccccc1C2=O,inconclusive: -44%
22,c1coc(C2Nc3ccccc3-c3nc4ccccc4n32)c1 (stereo unspecified),inconclusive: -58.4%
23,Cc1ccccc1-n1c(=O)cc(N2CCC3(CC2)OCCO3)[nH]c1=O,active: -119%

# In the list so far, two contain a cyano group.
row,SMILES,"activity change (PNC), negative = inhibition"
13,CC(C)CC(/C(O)=C(\C#N)c1nc2ccccc2[nH]1)N1C(=O)c2ccccc2C1=O (stereo unspecified),inconclusive: -30.4%
11,N#Cc1c(NC(=O)C2CC2)sc2c1CCCCC2,inactive: -21.9%

# Following part

row,SMILES,"activity change (PNC), negative = inhibition"
1,COc1ccc(OCC(=O)OCC(=O)NCc2ccc(F)cc2)cc1,inconclusive: -41%
2,COc1cc2c(cc1NC(=O)CN1CCN(S(=O)(=O)c3ccccc3F)CC1)oc1ccccc12,inactive: 20.9%
3,O=C(Cc1csc(N2CCOCC2)n1)N/N=C/c1ccc(Cl)cc1Cl,inconclusive: -36.6%
4,COc1cccc(Nc2nc(-c3sc(NC(=O)c4ccco4)nc3C)cs2)c1,inactive: 32.6%
5,Cc1cc2oc(C(=O)Nc3c(C)n(C)n(-c4ccccc4)c3=O)c(C)c2cc1Cl,inactive: 2.22%
6,COc1cc(/C=C2/SC(=O)N(Cc3ccccc3)C2=O)ccc1OCc1ccncc1,inactive: 5.08%
7,COc1ccc2sc(N3C(=O)C4CC=C(C)CC4C3=O)nc2c1 (stereo unspecified),inconclusive: -72.2%
8,O=C(O)c1ccc(NCc2ccncc2)cc1,inactive: 9.17%
9,COc1cc(OC)cc(C(=O)N2CCN(C(=O)c3ccc(OC)c(OC)c3)CC2)c1,inconclusive: -59.6%
10,COC(=O)c1ccc(NC(=O)CN(c2ccc3c(c2)OCO3)S(C)(=O)=O)cc1,inconclusive: -52.1%
11,CC1CC(C)(C)NC(=S)N1CC(=O)NCc1ccccc1Cl (stereo unspecified),inconclusive: -31.1%
12,COc1ccc(CN2C(=O)c3ccccc3C(/C=N\OCc3ccc(C)cc3)C2=O)cc1 (stereo unspecified),inactive: 38.7%
13,CCCCc1nc2ccccc2n1Cc1nnc2n1-c1ccccc1SC2,inconclusive: -47.5%
14,CC1(C)COC(c2cccn2Cc2ccc(F)cc2Cl)=N1,inconclusive: -34.1%
15,COc1ccc(S(=O)(=O)c2ccc(OC)c(OC)c2)cc1OC,inconclusive: -43.1%
16,COCCCNS(=O)(=O)c1ccc(S(=O)(=O)N2CCCC2)cc1,inconclusive: -39.6%
17,COCC(=O)N(CCc1ccc(OC)c(OC)c1)Cc1nc2ccccc2c(=O)[nH]1,inactive: 13.4%
18,CCOC(=O)C1=C(C)N(c2ccccc2)C(=O)/C1=C\c1ccco1,inconclusive: -47.1%
19,COc1ccc(C)cc1NC(=S)N1CCN(c2ccccn2)CC1,inconclusive: -33.9%
20,Cc1cc(C(=O)COC(=O)C2=NNC(=O)CC2)c(C)n1-c1ccccc1,inconclusive: -36.8%
21,Cc1ccc(C(=O)Nc2nc(-c3ccccc3)c(-c3ccccc3)o2)cc1,inconclusive: -30.8%
22,CCc1nnc(NC(=O)c2ccc(S(=O)(=O)N(CCOC)CCOC)cc2)s1,inconclusive: -38.1%
